Experimental data published in publication PMC9525722.
No constants are given. Whether binding was seen depends on the method and setting. In cells and extracts the contact can be indirect. Some results given as binding are weak or reduced against the parent protein; the word gives no strength.

Chains of the proteins cited; added tags and fusions are not shown.
UniProt Q00613: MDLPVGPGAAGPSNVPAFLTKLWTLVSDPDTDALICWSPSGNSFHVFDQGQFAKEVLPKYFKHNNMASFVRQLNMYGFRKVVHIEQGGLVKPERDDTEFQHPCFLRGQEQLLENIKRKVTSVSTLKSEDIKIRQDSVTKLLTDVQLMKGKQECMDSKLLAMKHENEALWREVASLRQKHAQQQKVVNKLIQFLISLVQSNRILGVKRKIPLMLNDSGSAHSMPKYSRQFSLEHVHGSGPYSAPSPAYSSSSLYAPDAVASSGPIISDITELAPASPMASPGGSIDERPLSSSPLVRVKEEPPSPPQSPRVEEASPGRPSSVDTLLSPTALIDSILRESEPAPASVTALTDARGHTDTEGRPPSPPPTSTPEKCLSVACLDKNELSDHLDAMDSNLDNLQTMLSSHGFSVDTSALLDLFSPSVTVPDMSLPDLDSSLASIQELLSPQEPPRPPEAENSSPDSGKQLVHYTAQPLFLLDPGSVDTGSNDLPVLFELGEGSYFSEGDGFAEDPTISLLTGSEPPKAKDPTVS
UniProt P31749: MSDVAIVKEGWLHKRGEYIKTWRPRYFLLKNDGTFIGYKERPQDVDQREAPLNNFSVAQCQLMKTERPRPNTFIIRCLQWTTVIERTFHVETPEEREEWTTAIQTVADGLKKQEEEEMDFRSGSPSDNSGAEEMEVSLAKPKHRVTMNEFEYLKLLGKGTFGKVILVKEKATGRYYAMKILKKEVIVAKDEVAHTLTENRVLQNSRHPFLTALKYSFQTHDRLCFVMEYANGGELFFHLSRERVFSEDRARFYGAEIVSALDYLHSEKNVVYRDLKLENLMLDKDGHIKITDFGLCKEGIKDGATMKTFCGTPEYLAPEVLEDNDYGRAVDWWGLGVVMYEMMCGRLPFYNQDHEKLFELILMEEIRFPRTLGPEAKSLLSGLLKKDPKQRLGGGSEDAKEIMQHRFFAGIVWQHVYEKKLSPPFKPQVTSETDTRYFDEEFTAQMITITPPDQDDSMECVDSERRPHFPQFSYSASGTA

Target: HSF1 (human (endogenous in HUVECs)) (UniProt Q00613)
Test: co-IP; nuclear extracts and cytosol of HUVECs (Ctrl, PE, PE + TMZ, PE + TMZ + Akt inhibitor AZD5363); pre-cleared lysate with primary antibody at 4 °C overnight, protein A/G agarose beads; blots for HSF1, Akt and p-Akt

binding	Substance
binds	Akt (from UniProt P31749 1-480)
binds	p-Akt (from UniProt P31749 1-480)
